HELM strings list residues between dots; [ac] is acetyl, [am] amide, other brackets name non-standard units.
Assay: general procedure: Fmoc solid-phase peptide synthesis; Fmoc Rink amide resin, 0.641 mmol/g loading; PyBOP
Details: whole synthesis

| Substance | isolated yield | final HPLC purity |
| --- | --- | --- |
| PEPTIDE1{G.K.W.M.S.L.L.K.H.I.L.K.[am]}$$$$V2.0 | 8.3% | 99.0% |
| PEPTIDE1{G.K.W.M.S.L.L.K.H.[LysChol].L.K.[am]}$$$$V2.0 | 2.2% | 95.2% |
| PEPTIDE1{G.K.W.M.S.L.L.[LysChol].H.I.L.K.[am]}$$$$V2.0 | 3.4% | 99.8% |
| PEPTIDE1{G.K.W.M.S.[LysChol].L.K.H.I.L.K.[am]}$$$$V2.0 | 7.2% | 99.8% |

Source: PMC5676250 (Chemical Science, 2017)
